# Percent effect of library compounds

Sequences of proteins named here, by UniProt entry; tags and fusion partners are left off. Residues count along the entry.
UniProt P9WPC5, whole entry: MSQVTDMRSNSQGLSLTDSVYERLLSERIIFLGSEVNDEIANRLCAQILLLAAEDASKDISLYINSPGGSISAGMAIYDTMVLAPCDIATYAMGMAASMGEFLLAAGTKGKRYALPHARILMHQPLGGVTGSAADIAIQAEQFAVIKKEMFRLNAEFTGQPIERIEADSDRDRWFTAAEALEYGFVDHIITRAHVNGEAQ
UniProt P9WPC3, whole entry partner: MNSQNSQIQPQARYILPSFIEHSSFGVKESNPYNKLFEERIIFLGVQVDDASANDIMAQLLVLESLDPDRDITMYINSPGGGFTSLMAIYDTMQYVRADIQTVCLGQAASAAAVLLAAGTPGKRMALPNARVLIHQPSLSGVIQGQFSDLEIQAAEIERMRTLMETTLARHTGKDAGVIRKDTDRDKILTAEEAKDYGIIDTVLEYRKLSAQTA
UniProt P9WFT3, whole entry: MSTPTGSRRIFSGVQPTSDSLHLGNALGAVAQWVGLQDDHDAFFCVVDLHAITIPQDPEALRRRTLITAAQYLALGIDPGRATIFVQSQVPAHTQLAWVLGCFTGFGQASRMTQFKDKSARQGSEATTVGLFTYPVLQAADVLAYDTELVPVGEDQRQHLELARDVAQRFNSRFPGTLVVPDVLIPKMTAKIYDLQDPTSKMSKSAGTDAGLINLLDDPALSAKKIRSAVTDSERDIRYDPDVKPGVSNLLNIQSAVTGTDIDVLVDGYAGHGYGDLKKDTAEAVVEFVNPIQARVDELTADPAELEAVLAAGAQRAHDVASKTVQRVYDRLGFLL
UniProt I6X8D2, whole entry: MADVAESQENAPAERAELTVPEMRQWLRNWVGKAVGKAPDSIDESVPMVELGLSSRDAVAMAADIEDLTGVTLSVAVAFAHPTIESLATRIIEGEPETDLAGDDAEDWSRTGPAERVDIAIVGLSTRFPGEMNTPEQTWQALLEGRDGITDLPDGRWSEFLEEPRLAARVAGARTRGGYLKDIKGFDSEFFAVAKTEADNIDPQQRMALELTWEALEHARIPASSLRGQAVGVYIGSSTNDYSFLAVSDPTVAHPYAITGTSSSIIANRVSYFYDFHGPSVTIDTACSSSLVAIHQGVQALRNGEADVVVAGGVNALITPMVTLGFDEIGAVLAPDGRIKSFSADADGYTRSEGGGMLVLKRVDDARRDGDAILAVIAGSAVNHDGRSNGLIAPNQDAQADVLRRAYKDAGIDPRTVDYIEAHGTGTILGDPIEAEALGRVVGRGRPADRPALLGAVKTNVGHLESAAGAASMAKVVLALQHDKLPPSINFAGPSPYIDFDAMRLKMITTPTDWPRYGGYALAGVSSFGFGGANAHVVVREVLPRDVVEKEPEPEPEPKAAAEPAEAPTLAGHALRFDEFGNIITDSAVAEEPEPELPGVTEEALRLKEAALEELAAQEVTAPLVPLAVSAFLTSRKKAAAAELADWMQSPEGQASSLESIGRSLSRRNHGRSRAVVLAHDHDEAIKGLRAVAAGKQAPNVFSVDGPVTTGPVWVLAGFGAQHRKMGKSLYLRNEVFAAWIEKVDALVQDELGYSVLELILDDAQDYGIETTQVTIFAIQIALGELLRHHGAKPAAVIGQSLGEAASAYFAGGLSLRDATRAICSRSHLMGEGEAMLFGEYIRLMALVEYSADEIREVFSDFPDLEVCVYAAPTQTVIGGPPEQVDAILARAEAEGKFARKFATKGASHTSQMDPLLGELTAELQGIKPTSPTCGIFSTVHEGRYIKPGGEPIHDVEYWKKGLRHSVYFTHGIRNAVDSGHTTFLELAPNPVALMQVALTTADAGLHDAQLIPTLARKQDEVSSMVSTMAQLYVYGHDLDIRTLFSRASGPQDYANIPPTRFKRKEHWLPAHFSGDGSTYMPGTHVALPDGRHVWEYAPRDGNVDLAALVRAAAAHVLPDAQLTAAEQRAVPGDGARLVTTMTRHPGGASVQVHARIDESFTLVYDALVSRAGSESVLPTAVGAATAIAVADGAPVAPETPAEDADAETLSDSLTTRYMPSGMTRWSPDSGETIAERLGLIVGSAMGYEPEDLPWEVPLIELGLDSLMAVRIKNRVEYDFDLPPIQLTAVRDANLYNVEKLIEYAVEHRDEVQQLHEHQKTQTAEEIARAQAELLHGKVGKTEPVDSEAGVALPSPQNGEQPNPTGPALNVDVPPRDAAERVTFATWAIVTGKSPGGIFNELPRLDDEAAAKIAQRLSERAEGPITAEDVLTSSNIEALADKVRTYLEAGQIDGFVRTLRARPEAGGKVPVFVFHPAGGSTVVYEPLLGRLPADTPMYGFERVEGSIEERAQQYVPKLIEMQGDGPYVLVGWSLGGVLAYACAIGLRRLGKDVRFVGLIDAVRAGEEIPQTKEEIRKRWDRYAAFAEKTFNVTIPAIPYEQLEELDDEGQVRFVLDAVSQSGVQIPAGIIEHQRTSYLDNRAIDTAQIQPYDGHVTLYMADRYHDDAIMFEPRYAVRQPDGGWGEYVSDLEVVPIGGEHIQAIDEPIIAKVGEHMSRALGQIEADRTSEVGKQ
UniProt Q8IDJ8, 1-583: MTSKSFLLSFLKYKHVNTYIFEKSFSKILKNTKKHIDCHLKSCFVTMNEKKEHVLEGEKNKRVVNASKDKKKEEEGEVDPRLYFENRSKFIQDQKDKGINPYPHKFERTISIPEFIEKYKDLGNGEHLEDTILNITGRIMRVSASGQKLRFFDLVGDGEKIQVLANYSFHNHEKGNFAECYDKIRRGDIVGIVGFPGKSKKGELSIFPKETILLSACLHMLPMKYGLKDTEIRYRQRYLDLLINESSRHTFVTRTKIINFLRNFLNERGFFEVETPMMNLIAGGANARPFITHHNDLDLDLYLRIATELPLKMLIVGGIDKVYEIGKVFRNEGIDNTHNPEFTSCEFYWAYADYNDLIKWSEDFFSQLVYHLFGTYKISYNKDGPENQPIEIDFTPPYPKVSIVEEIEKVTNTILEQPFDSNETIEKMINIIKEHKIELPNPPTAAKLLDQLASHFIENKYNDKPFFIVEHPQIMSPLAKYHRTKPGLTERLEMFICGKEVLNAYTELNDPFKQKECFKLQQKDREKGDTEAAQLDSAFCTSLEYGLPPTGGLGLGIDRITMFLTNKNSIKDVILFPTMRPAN

Measurements from “University of Dundee, Small-Polar-MMV Screening Library” (2021), ChEMBL document CHEMBL3988442.

Each number is a percent effect as filed.
The controls that fix the scale are not given in the record; negative values are as filed.
The compounds are a random part of those screened.
A dash means the value is not listed here; it may have been measured.

ClpP1P2: 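ClpP1P2, Mycobacterium tuberculosis (UniProt P9WPC5 and UniProt P9WPC3). Protease assay of ClpP1P2, read by the AMC dye that it sets free. Tested at 50 µM. Higher reads as stronger inhibition, judged from the few compounds that gave an IC50. Most other retested compounds had strongly negative values. Of about 69,000 compounds tested this way, about 10 (0.015%) reached 50% or more in at least one test.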
MtTrpRS: 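Tryptophan-tRNA ligase, Mycobacterium tuberculosis (UniProt P9WFT3). Enzyme assay of tryptophanyl-tRNA synthetase; the read-out is not stated. Concentration: 10 µM. Direction is not recorded; retested compounds ran higher, which suggests that high means inhibition. Of about 65,000 compounds tested this way, about 64 (0.098%) reached 50% or more in at least one test.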
Pks13 thioesterase: 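Enzyme assay of the thioesterase domain of polyketide synthase 13; the read-out is not stated. Target: Polyketide synthase Pks13, Mycobacterium tuberculosis (UniProt I6X8D2). Concentration: 30 µM. Higher reads as stronger inhibition (inferred from which compounds were picked for retests). Of about 67,000 compounds tested this way, about 300 (0.46%) reached 50% or more in at least one test.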
PfKRS1: 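Lysine-tRNA ligase, Plasmodium falciparum 3D7 (UniProt Q8IDJ8). Enzyme assay of the cytosolic lysyl-tRNA synthetase in 384-well plates, read by luminescence. Concentration: 30 µM. Direction is inferred from only a few compounds that gave an IC50; most scored high, so higher reads as stronger inhibition. Size under these conditions: about 69,000 compounds, about 49 of them at 50% or above in at least one test.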

| SMILES | ClpP1P2 | MtTrpRS | Pks13 thioesterase | PfKRS1 |
|---|---|---|---|---|
| `O=C1OCCN1c1cccc(CNS(=O)(=O)Cc2ccc(F)cc2)c1` | -8.881 | -8.309 | -47.23 | 2.525 |
| `Cc1nc(C)c(C(=O)NCC(c2ccccc2Cl)N2CCOCC2)s1` (centres unmarked) | 8.855 | 2.028 | 2.805 | 4.777 |
| `Cc1noc(C)c1CN1CCC2(COCc3cnc(N(C)C)nc32)C1` (centres unmarked) | -4.158 | -0.6865 | -7.94 | 3.344 |
| `CCN(CC)CCN(CC(C)C)c1cc(C(F)(F)F)nc2ncnn12` | -11.14 | 3.268 | -7.5 | 0.5922 |
| `Cc1ccc2c(c1)C1(CC2)CCN(c2nncs2)CC1` | -12.1 | -3.043 | 11.18 | 2.367 |
| `CSCCCN1C[C@H]2CC[C@@H]1CN(Cc1[nH]cnc1C)C2` | -33.94 | -1.447 | -11.91 | 1.212 |
| `O=C(NC1CC1)N1CCOCC2(CCN(Cc3cccs3)C2)C1` (centres unmarked) | -19.85 | -7.181 | -21.35 | 1.156 |
| `CCS(=O)(=O)N1CCC2(CCN(C(=O)c3cccs3)CC2)CC1` | 8.977 | - | -11.58 | 3.558 |
| `COc1cccc2c1OCC(C(=O)N1CCSCC1)C2` (centres unmarked) | -3.078 | -0.5072 | -7.613 | 1.826 |
| `Cc1ncsc1C(=O)NCc1ccc(-c2n[nH]cc2C(=O)N(C)C)cc1` | 8.78 | -1.172 | -0.5332 | 1.723 |
| `COc1ncccc1-c1cc(C(=O)NC2CC2)ccn1` | 4.7 | -0.2467 | -10 | 6.052 |
| `O=C1NCC(CN2CCc3onc(-c4ccc(C(F)(F)F)cc4)c3C2)O1` (centres unmarked) | -6.77 | 2.283 | 8.597 | 2.708 |
| `COc1ncc(CN(C)C(C)c2cccnc2)cn1` (centres unmarked) | -9.541 | 1.227 | 0.2281 | 1.077 |
| `CNC(=O)COC1COC2(CCN(c3ncccn3)CC2)C1` (centres unmarked) | 9.962 | 3.171 | -33.47 | -0.1493 |
| `Cc1nc(C)c(S(=O)(=O)NC(=O)c2sccc2C)s1` | -11.16 | -4.896 | 7.448 | -0.6499 |
| `c1cnc(N2CCCC(c3cncc(-n4ccnc4)n3)C2)nc1` (centres unmarked) | 9.956 | - | -17.53 | 2.998 |
| `CCc1cnc(C(C)NC(=O)N2CCCN(CC(F)F)CC2)s1` (centres unmarked) | -0.7989 | 1.162 | -6.358 | 1.984 |
| `Cc1csc2ncc(-c3ccnc(N4CCC[C@@H]4CO)n3)c(=O)n12` | -12.03 | - | 27.3 | 1.905 |
| `Cn1cc(-c2nnn3c2COC(CNCc2ccncc2)C3)cn1` (centres unmarked) | 6.538 | -1.089 | 4.265 | 3.426 |
| `COCCN1CC[C@H]2OCC[C@@H](C(=O)N3CCCO3)[C@H]2C1` | -6.979 | -0.8299 | 3.404 | 1.15 |
| `CC(C)C(=O)N1CCC2(CC1)NC(=O)c1ccccc12` | 6.113 | -1.618 | -5.343 | 10.49 |
| `CCCc1nn(C2CCCN(C(C)C)C2=O)c(=O)o1` (centres unmarked) | 1.843 | 6.706 | -9.779 | -1.381 |
| `Cc1nc(N2CCOCC2)nc2c1CCN(C(=O)N1CCCC1)CC2` | 1.472 | -4.478 | -27.53 | -0.6443 |
| `FC(F)CN1CCC(NCc2ccc(-n3cccn3)nc2)CC1` | -17.83 | -4.068 | -8.914 | -0.236 |
| `O=C(Nc1cccc(C(=O)OCC2CCCN2)c1)c1ccoc1` (centres unmarked) | -4.382 | -0.2467 | 4.248 | 0.1155 |
| `Cc1ocnc1C(=O)N1CCCC1c1ccc(C(=O)N2CCSCC2)s1` (centres unmarked) | 5.758 | 0.75 | -3.408 | 3.663 |
| `COc1ccccc1N1CCC(CNCc2c(C)nn(C)c2OC)C1` (centres unmarked) | -6.452 | -0.5228 | -3.535 | -1.791 |
| `COCc1nc2cc3c(cc2c(=O)o1)OCCCO3` | 6.366 | -1.398 | 10.01 | 6.49 |
| `Cn1cc(CN2CC[C@H]3OCC[C@@H](C(=O)NCc4ccco4)[C@@H]3C2)cn1` | -10.46 | 0.8299 | 4.498 | -1.174 |
| `O=C(C1CCCCC1)N1CC2(CCNCC2)C1` | -7.599 | 6.871 | -33.67 | 6.493 |
| `CCCN1CCCC1c1ccc(C(=O)N2CCOCC2)s1` (centres unmarked) | -11.08 | -2.804 | 1.723 | 1.427 |
| `CCN(CC)C(=O)c1nnsc1-c1ccccc1` | 0.8847 | -0.89 | -17.89 | 2.314 |
| `CCc1ncc2c(n1)CN(CC(=O)NC1CCCCNC1=O)CC2` (centres unmarked) | -8.434 | -0.09709 | 9.247 | 1.479 |
| `CC(C(=O)N1CCN(c2ncccn2)CC1)n1cncn1` (centres unmarked) | 13.44 | -1.467 | -10.17 | 2.356 |
| `CNCC(=O)NC1CC(C)(C)Cc2nc(C(C)(C)C)ncc21` (centres unmarked) | -3.639 | -2.448 | -8.512 | -2.052 |
| `CCCn1cc(C(=O)n2nc(C)cc2C)c(S(=O)(=O)N2CCSCC2)n1` | -6.248 | -0.4955 | -10.1 | 1.672 |
| `Cc1cc(=O)n(C)cc1NC(=O)Cc1ccc(C(F)(F)F)cc1` | -5.255 | 6.706 | -11.12 | 1.599 |
| `Cc1cc(N(C)CCCn2cccn2)nc(-c2cccnc2)n1` | 20.93 | -0.4405 | 15.2 | -2.982 |
| `Cc1cccc2cc(CN3CCC(O)(CN4CCCC4)CC3)c(=O)[nH]c12` | -22.09 | -3.039 | 0.6544 | 5.993 |
| `CCC(C)(C)NC(=O)c1ccc(NC(=O)NCc2cc(C)no2)cc1` | 6.549 | -2.16 | - | 5.982 |
| `COc1cc(-c2cc(-c3ccn(C)c3)nc(N)c2C#N)cc(OC)c1O` | -6.886 | 0.9288 | 7.251 | 0.3209 |
| `Cn1ccc(C(=O)NC2CCC23CCN(Cc2cccnc2)CC3)c1` (centres unmarked) | -5.599 | -4.03 | 8.782 | -0.7889 |
| `O=S(=O)(Nc1c(F)cccc1N1CCCC1)c1cncc(F)c1` | -10.02 | -4.897 | 19.85 | 5.047 |
| `O=C(CN1CCc2ccccc21)Nc1ccc(OC(F)F)cc1` | 8.402 | 18.39 | 9.441 | -3.342 |
| `CC(C(=O)N1CCOCC1)n1cncn1` (centres unmarked) | 13.59 | -2.792 | -4.771 | -1.378 |
| `OCCN1CCC(c2cncc(-c3cccc(Cl)c3)n2)CC1` | -7.772 | - | 4.443 | -0.464 |
| `CN(C)CCN1CCO[C@H]2CN(C(=O)N(C)C)C[C@H]21` | -7.571 | 7.849 | 21.65 | -8.497 |
| `Cc1nc(CN2CCN(Cc3ccoc3)Cc3cccnc32)cs1` | -3.807 | 10.26 | -6.373 | -4.322 |
| `CN(Cc1ccc(F)cc1)Cc1cc2c(cc1Br)OCCO2` | -3.924 | 0.983 | 1.911 | 1.177 |
| `Cc1ccc(N2CCCC3(CCN(C(=O)CC(F)(F)F)C3)C2)nn1` (centres unmarked) | 3.69 | -8.585 | 6.626 | -0.1694 |
| `COC(=O)c1cc(OCC2CCC2)cc(C(=O)N[C@H]2CC[C@H](O)CC2)c1` | -3.729 | 1.497 | -16.91 | -1.611 |
| `CN(C)CC1(O)CCCN(C(=O)Cn2ccc3ccccc32)CC1` (centres unmarked) | -12.46 | 3.701 | -3.501 | 3.765 |
| `CCn1cc(CN2CCC(CNC(C)=O)CC2)cc1C#N` | -1.25 | -0.6849 | 12.24 | 3.777 |